Laboratory results: patent publication US20090192084A1
Results are given in words; binding and its absence hold for the method and conditions named. In cells and extracts the contact can be indirect. A result given as binding can be weak or reduced; the word gives no strength.

What was measured:
p97-Myc [1] = assay: p97-Myc co-IP, 293 cells, MudPIT MS
p97-Myc [2] = assay: p97-Myc co-IP, HeLa cells, MG132, western blot

B1: endogenous UBXD7 (protein, human, UniProt O94888 2-489, looked up)
chain: AAHGGSAASSALKGLIQQFTTITGASESVGKHMLEACNNNLEMAVTMFLDGGGIAEEPSTSSASVSTVRPHTEEEVRAPIPQKQEILVEPEPLFGAPKRRRPARSIFDGFRDFQTETIRQEQELRNGGAIDKKLTTLADLFRPPIDLMHKGSFETAKECGQMQNKWLMINIQNVQDFACQCLNRDVWSNEAVKNIIREHFIFWQVYHDSEEGQRYIQFYKLGDFPYVSILDPRTGQKLVEWHQLDVSSFLDQVTGFLGEHGQLDGLSSSPPKKCARSESLIDASEDSQLEAAIRASLQETHFDSTQTKQDSRSDEESESELFSGSEEFISVCGSDEEEEVENLAKSRKSPHKDLGHRKEENRRPLTEPPVRTDPGTATNHQGLPAVDSEILEMPPEKADGVVEGIDVNGPKAQLMLRYPDGKREQITLPEQAKLLALVKHVQSKGYPNERFELLTNFPRRKLSHLDYDITLQEAGLCPQETVFVQERN
binding (p97-Myc [1]): binds
binding (p97-Myc [2]): binds
